Reference: PubChem BioAssay AID1224830 (NIAID, 2016)
The deposit covers about 18,000 reagents; this is an unselected part. Of all reagents, about 2,900 (16%) were called active. 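Calls are made per well; low scores hint the gene aids the LPS response, high scores that it dampens it.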 A number with no mark means an inactive call. Repeated entries: four replicate wells of each siRNA pool.

Test: 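Regulators of TLR4 signalling towards TNF-alpha in macrophage-like cells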 (primary screen)
Cell system: human THP-1 monocytic leukaemia cells, TNF dual-luciferase reporter clone, PMA-differentiated to macrophage-like cells
Reagent: siRNA pool against human genes, 50 nM
Duration: LPS for 4 h, given about 3 days after siRNA transfection
Treatment: bacterial LPS (TLR4 ligand), 10 ng/ml
Measured: 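TNF firefly reporter luminescence divided by renilla, normalised to the plate median, then turned into a robust z-score for each replicate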
Reading the numbers: TNF reporter robust z-score: higher = stronger TNF reporter response to LPS
Call rule: 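a well is active when its z-score exceeds 2.8 or falls below -1.5; control wells carry no call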

{"gene": "PGR (progesterone receptor)", "TNF reporter robust z-score": 2.53}
{"gene": "PGR (progesterone receptor)", "TNF reporter robust z-score": 2.56}
{"gene": "PGR (progesterone receptor)", "TNF reporter robust z-score": 1.77}
{"gene": "PGR (progesterone receptor)", "TNF reporter robust z-score": 1.63}
{"gene": "GLYR1 (glyoxylate reductase 1 homolog)", "TNF reporter robust z-score": 2.46}
{"gene": "GLYR1 (glyoxylate reductase 1 homolog)", "TNF reporter robust z-score": -0.82}
{"gene": "GLYR1 (glyoxylate reductase 1 homolog)", "TNF reporter robust z-score": 0.75}
{"gene": "GLYR1 (glyoxylate reductase 1 homolog)", "TNF reporter robust z-score": 1.54}
{"gene": "HSDL2 (hydroxysteroid dehydrogenase like 2)", "TNF reporter robust z-score": 0.33}
{"gene": "HSDL2 (hydroxysteroid dehydrogenase like 2)", "TNF reporter robust z-score": 2.51}
{"gene": "HSDL2 (hydroxysteroid dehydrogenase like 2)", "TNF reporter robust z-score": 0.19}
{"gene": "HSDL2 (hydroxysteroid dehydrogenase like 2)", "TNF reporter robust z-score": 0.89}
{"gene": "ZDHHC20 (zDHHC palmitoyltransferase 20)", "TNF reporter robust z-score": "4.7 (active)"}
{"gene": "ZDHHC20 (zDHHC palmitoyltransferase 20)", "TNF reporter robust z-score": -0.45}
{"gene": "ZDHHC20 (zDHHC palmitoyltransferase 20)", "TNF reporter robust z-score": 0.44}
{"gene": "ZDHHC20 (zDHHC palmitoyltransferase 20)", "TNF reporter robust z-score": -0.37}
{"gene": "DRC7 (dynein regulatory complex subunit 7)", "TNF reporter robust z-score": -0.52}
{"gene": "DRC7 (dynein regulatory complex subunit 7)", "TNF reporter robust z-score": 0.25}
{"gene": "DRC7 (dynein regulatory complex subunit 7)", "TNF reporter robust z-score": 0.05}
{"gene": "DRC7 (dynein regulatory complex subunit 7)", "TNF reporter robust z-score": 0.46}
{"gene": "CCDC77 (coiled-coil domain containing 77)", "TNF reporter robust z-score": -1.03}
{"gene": "CCDC77 (coiled-coil domain containing 77)", "TNF reporter robust z-score": 0.16}
{"gene": "CCDC77 (coiled-coil domain containing 77)", "TNF reporter robust z-score": 0.06}
{"gene": "CCDC77 (coiled-coil domain containing 77)", "TNF reporter robust z-score": -0.45}
{"gene": "ATAD3B (ATPase family AAA domain containing 3B)", "TNF reporter robust z-score": 0.35}
{"gene": "ATAD3B (ATPase family AAA domain containing 3B)", "TNF reporter robust z-score": -0.04}
{"gene": "ATAD3B (ATPase family AAA domain containing 3B)", "TNF reporter robust z-score": -0.16}
{"gene": "ATAD3B (ATPase family AAA domain containing 3B)", "TNF reporter robust z-score": 1.23}
{"gene": "OR2G6 (olfactory receptor family 2 subfamily G member 6)", "TNF reporter robust z-score": 0.3}
{"gene": "OR2G6 (olfactory receptor family 2 subfamily G member 6)", "TNF reporter robust z-score": 0.96}
{"gene": "OR2G6 (olfactory receptor family 2 subfamily G member 6)", "TNF reporter robust z-score": -0.56}
{"gene": "OR2G6 (olfactory receptor family 2 subfamily G member 6)", "TNF reporter robust z-score": 0.8}
{"gene": "ABCB5 (ATP binding cassette subfamily B member 5)", "TNF reporter robust z-score": -0.24}
{"gene": "ABCB5 (ATP binding cassette subfamily B member 5)", "TNF reporter robust z-score": -0.27}
{"gene": "ABCB5 (ATP binding cassette subfamily B member 5)", "TNF reporter robust z-score": -1.16}
{"gene": "ABCB5 (ATP binding cassette subfamily B member 5)", "TNF reporter robust z-score": 0.09}
{"gene": "SAMD9 (sterile alpha motif domain containing 9)", "TNF reporter robust z-score": 1.97}
{"gene": "SAMD9 (sterile alpha motif domain containing 9)", "TNF reporter robust z-score": 0.22}
{"gene": "SAMD9 (sterile alpha motif domain containing 9)", "TNF reporter robust z-score": 1.04}
{"gene": "SAMD9 (sterile alpha motif domain containing 9)", "TNF reporter robust z-score": 0.46}
{"gene": "KCNMB1", "TNF reporter robust z-score": 2.54}
{"gene": "KCNMB1", "TNF reporter robust z-score": 0.63}
{"gene": "KCNMB1", "TNF reporter robust z-score": 0.01}
{"gene": "KCNMB1", "TNF reporter robust z-score": -0.67}
{"gene": "EME2 (essential meiotic structure-specific endonuclease subunit 2)", "TNF reporter robust z-score": 1.02}
{"gene": "EME2 (essential meiotic structure-specific endonuclease subunit 2)", "TNF reporter robust z-score": 1.79}
{"gene": "EME2 (essential meiotic structure-specific endonuclease subunit 2)", "TNF reporter robust z-score": 2.35}
{"gene": "EME2 (essential meiotic structure-specific endonuclease subunit 2)", "TNF reporter robust z-score": 2.02}
{"gene": "ZFYVE21 (zinc finger FYVE-type containing 21)", "TNF reporter robust z-score": -0.19}
{"gene": "ZFYVE21 (zinc finger FYVE-type containing 21)", "TNF reporter robust z-score": 0.23}
{"gene": "ZFYVE21 (zinc finger FYVE-type containing 21)", "TNF reporter robust z-score": -0.55}
{"gene": "ZFYVE21 (zinc finger FYVE-type containing 21)", "TNF reporter robust z-score": 0.02}
{"gene": "PREX1", "TNF reporter robust z-score": 1.95}
{"gene": "PREX1", "TNF reporter robust z-score": 2.11}
{"gene": "PREX1", "TNF reporter robust z-score": 1.83}
{"gene": "HSD11B1L (hydroxysteroid 11-beta dehydrogenase 1 like)", "TNF reporter robust z-score": -0.01}
{"gene": "HSD11B1L (hydroxysteroid 11-beta dehydrogenase 1 like)", "TNF reporter robust z-score": 0.09}
{"gene": "HSD11B1L (hydroxysteroid 11-beta dehydrogenase 1 like)", "TNF reporter robust z-score": 1.14}
{"gene": "HSD11B1L (hydroxysteroid 11-beta dehydrogenase 1 like)", "TNF reporter robust z-score": 0.81}
{"gene": "CKLF (chemokine like factor)", "TNF reporter robust z-score": -1.46}
{"gene": "CKLF (chemokine like factor)", "TNF reporter robust z-score": -0.91}
{"gene": "CKLF (chemokine like factor)", "TNF reporter robust z-score": "-1.59 (active)"}
{"gene": "CKLF (chemokine like factor)", "TNF reporter robust z-score": "-1.6 (active)"}
